Assay results taken from the supplement of paper PMC11732987, “Enantioselective OTUD7B fragment discovery through chemoproteomics screening and high-throughput optimisation” (Communications Chemistry, 2025).
This is one part of the list. The data scatter; read single values as rough.

By UniProt entry, the sequences of proteins in these tests, tags left out. Where a name states a change or a piece, a line headed by the entry shows the natural chain unless it says otherwise. Residues count along the entry.
UniProt Q709C8: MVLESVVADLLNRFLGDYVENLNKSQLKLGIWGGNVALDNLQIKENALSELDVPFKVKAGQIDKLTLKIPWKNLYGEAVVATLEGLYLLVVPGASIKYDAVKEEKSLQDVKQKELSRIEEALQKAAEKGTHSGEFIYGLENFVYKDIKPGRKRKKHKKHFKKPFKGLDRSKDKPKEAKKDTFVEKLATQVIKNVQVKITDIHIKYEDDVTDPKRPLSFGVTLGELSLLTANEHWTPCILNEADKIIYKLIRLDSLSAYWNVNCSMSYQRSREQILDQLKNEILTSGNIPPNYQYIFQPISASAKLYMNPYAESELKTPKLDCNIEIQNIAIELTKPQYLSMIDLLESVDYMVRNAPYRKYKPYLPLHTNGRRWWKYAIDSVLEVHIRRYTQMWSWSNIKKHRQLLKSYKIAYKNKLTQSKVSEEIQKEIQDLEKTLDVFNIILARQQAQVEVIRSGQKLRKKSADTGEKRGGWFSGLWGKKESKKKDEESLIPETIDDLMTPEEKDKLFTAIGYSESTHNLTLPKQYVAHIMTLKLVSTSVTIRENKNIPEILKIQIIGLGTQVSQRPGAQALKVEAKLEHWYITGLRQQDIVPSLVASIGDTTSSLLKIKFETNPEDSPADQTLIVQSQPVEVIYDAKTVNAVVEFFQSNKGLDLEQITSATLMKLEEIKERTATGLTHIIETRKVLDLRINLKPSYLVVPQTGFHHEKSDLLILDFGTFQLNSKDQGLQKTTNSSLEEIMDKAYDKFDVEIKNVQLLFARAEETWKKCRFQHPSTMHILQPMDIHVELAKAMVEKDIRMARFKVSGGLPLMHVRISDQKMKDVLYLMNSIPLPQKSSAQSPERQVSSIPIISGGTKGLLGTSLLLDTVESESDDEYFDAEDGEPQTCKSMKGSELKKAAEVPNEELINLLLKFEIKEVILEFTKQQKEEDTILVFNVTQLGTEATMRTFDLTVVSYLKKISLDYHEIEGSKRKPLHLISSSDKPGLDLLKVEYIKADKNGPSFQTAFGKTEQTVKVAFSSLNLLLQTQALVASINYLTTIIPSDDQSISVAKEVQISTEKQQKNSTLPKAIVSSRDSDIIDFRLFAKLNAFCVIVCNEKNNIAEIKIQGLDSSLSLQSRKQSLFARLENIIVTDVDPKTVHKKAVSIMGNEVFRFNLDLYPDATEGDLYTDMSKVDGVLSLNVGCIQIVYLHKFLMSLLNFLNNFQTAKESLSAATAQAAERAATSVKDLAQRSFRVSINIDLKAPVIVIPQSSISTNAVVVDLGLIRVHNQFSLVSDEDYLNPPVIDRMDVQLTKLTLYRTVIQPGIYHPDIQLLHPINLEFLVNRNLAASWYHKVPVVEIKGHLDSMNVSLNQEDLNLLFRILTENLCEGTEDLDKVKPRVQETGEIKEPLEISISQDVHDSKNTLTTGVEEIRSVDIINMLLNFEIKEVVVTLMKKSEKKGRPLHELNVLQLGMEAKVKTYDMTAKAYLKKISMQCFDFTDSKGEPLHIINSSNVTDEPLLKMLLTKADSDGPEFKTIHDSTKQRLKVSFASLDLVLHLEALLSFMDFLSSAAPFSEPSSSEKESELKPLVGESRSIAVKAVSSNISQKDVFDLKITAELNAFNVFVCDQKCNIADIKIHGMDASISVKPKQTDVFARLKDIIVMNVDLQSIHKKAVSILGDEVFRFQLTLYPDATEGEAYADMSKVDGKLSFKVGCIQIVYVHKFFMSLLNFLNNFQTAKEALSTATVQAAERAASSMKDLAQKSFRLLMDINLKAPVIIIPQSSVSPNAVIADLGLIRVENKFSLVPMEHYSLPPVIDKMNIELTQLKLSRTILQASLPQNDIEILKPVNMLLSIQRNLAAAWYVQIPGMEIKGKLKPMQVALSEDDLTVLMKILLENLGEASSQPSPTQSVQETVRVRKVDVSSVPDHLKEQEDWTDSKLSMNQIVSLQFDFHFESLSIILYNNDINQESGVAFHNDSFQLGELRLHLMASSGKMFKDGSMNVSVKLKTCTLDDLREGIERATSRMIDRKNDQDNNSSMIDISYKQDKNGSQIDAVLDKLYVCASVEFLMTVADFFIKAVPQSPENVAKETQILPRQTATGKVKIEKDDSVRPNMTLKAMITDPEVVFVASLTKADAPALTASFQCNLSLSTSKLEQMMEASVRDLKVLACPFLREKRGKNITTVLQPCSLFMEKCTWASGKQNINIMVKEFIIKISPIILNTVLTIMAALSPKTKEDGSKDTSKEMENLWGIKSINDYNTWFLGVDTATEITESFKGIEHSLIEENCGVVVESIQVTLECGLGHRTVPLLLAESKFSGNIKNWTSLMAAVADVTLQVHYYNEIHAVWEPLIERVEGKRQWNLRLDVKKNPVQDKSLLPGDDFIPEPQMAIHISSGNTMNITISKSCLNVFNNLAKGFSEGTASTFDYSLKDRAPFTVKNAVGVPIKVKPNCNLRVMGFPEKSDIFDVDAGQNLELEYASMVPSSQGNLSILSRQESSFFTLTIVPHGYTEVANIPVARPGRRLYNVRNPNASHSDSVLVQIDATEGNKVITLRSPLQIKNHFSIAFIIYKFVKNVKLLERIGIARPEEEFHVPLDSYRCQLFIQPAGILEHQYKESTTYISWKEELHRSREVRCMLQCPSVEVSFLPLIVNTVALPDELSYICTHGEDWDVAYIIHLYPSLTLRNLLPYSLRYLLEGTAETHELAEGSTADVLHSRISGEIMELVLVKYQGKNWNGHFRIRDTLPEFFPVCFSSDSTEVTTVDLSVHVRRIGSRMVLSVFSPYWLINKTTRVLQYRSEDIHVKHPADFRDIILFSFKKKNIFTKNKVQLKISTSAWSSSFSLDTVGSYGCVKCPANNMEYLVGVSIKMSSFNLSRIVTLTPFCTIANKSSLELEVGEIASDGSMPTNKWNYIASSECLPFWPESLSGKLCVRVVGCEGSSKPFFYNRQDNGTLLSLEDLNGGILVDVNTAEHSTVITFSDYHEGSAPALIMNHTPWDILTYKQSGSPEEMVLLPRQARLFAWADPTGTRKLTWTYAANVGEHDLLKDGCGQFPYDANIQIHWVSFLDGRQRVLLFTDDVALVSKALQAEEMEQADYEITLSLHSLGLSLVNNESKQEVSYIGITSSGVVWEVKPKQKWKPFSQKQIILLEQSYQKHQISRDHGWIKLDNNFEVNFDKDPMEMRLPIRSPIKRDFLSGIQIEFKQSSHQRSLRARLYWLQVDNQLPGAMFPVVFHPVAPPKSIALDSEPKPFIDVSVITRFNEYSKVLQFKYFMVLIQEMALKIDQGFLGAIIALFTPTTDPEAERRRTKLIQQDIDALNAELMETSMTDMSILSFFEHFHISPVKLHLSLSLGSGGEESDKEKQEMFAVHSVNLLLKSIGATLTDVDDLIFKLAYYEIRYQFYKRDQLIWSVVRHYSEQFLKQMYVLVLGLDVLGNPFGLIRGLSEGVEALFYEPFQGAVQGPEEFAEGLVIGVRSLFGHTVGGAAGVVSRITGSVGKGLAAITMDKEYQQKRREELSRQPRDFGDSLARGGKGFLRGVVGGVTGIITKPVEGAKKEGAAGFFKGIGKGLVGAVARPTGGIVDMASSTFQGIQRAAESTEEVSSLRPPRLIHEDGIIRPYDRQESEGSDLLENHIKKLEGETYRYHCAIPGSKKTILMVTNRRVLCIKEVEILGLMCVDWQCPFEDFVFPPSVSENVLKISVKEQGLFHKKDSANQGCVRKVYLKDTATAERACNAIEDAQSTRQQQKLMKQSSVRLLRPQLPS
UniProt Q9UPU5: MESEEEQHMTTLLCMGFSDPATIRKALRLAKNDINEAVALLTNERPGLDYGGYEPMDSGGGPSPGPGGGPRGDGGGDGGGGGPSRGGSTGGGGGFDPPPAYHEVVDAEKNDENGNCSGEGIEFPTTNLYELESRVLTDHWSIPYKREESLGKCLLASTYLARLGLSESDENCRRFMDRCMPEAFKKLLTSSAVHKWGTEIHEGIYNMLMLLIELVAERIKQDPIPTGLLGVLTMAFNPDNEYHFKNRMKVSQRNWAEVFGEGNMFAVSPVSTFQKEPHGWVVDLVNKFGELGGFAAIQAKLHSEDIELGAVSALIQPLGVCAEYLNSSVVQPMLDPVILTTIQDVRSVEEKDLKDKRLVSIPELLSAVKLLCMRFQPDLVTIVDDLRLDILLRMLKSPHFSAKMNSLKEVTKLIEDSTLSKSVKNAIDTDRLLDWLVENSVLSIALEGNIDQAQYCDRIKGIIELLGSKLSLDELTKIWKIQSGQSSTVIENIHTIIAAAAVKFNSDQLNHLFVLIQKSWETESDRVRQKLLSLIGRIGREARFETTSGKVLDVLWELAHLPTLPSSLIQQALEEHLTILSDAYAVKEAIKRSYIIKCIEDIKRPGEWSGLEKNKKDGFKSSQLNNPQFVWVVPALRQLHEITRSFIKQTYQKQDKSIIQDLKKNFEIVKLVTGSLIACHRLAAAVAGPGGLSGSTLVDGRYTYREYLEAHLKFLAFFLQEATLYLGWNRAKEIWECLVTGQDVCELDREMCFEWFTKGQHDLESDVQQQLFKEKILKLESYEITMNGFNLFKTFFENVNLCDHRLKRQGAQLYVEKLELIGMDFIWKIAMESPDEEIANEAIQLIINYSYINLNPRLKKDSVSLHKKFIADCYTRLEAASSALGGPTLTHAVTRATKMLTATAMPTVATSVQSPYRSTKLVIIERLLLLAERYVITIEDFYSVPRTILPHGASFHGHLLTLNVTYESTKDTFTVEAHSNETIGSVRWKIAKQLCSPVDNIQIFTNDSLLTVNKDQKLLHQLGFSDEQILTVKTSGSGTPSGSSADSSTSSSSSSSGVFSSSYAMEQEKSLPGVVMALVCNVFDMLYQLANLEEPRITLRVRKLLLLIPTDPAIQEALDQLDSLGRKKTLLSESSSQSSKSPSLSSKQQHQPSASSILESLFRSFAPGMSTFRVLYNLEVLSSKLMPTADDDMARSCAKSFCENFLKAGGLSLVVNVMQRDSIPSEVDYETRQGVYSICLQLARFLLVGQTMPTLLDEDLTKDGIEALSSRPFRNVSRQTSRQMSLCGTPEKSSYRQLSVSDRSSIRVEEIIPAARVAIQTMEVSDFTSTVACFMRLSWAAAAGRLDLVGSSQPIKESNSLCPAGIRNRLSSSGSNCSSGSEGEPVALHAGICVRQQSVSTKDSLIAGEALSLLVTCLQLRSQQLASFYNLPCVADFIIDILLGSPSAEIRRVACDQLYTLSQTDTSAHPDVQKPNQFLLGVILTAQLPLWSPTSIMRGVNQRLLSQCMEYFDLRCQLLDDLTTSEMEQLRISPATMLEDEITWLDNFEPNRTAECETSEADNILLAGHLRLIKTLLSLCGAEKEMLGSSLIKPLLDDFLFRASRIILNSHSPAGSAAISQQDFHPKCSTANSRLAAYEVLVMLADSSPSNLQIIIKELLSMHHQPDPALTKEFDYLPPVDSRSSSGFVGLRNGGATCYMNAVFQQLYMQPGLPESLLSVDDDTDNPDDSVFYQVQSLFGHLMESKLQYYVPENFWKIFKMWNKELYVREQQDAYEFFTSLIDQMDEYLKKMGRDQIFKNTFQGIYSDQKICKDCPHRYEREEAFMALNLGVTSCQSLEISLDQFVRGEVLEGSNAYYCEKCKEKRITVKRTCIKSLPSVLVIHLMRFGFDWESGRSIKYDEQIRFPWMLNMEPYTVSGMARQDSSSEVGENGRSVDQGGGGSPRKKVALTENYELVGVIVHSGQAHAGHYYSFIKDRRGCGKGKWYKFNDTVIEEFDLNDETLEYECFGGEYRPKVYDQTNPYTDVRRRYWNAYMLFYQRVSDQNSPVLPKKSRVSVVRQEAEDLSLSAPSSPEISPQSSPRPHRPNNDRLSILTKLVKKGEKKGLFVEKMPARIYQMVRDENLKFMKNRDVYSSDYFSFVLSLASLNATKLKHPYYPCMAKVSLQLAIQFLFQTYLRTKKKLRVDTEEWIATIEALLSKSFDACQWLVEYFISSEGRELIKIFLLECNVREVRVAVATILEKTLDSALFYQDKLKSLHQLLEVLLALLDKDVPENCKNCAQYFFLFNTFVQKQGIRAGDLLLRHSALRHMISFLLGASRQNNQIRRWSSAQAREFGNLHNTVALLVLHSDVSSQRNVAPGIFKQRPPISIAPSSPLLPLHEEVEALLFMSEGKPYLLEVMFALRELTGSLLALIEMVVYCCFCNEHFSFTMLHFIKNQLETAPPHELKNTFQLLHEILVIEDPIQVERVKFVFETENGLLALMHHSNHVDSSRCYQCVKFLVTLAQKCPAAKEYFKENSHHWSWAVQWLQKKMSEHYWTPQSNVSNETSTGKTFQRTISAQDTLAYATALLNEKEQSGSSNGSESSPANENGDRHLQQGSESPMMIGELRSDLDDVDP
UniProt Q8NB14, 545-568: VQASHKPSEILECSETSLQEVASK
UniProt P07919: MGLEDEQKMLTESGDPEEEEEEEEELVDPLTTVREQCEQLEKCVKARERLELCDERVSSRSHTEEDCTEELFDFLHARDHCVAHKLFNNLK
UniProt Q9NQZ2, 354-373: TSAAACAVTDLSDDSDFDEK
UniProt Q16831, 139-164: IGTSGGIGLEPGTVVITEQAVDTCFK
UniProt Q96RL1, 430-460: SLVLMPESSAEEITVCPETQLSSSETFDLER
UniProt O94874, 123-144: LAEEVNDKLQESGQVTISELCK

Legend:
[1] = compound: ClCC(=O)N[C@@H]1CCCc2ccccc12; test: log2 mean competition ratio of IA-DTB cysteine labelling (DMSO/compound) (log2 ratio); higher = stronger cysteine engagement by compound; details: treatment time: 4 h, cell line lysate: HEK293T
Procedure: (§1)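 IA-DTB competitive cysteine chemoproteomics in HEK293T RIPA lysate. Lysates were treated with compound 29 or 30 at 50 or 200 µM for 4 h, then IA-DTB (500 µM, 1 h), trypsin-digested, NeutrAvidin-enriched and analysed by diaPASEF. Competition ratio = intensity DMSO / intensity compound (n=4 treated, n=64 DMSO); binding: mean log2 CR ≥ 1 and p ≤ 0.05 plus QC filters. Target is the cysteine site.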

[2] = compound: ClCC(=O)N[C@H]1CCCc2ccccc12; test: as above; details: treatment time: 4 h, cell line lysate: HEK293T
Procedure: as §1

| Target | log2 mean competition ratio ([1]; 50 µM) | log2 mean competition ratio ([1]; 200 µM) | log2 mean competition ratio ([2]; 50 µM) | log2 mean competition ratio ([2]; 200 µM) |
| --- | --- | --- | --- | --- |
| UHRF2 C541 (UniProt Q96PU4) | -0.171 | 0.278 | -0.573 | 0.161 |
| VARS2 C484 | 0.116 | -0.258 | 0.412 | 0.0732 |
| URB2 C1280 (UniProt Q14146) | 0.0994 | 0.281 | -0.646 | 0.302 |
| UGGT1 C1493 (UniProt Q9NYU2) | 0.305 | 0.393 | -0.171 | 0.419 |
| UTP25 C642 | -0.198 | -0.117 | -0.193 | -0.361 |
| UVRAG C186 (UniProt Q9P2Y5) | 0.0091 | 0.414 | -0.235 | 0.239 |
| USP8 C748 (UniProt P40818) | -0.169 | -0.118 | 0.301 | 0.501 |
| VPS18 C741 (UniProt Q9P253) | -0.426 | 0.101 | -0.884 | 0.257 |
| VPS13C C2440 (UniProt Q709C8) | 0.142 | -0.0686 | 0.195 | -0.231 |
| USP24 C1516 (UniProt Q9UPU5) | 0.242 | 0.461 | 0.38 | 0.105 |
| UTP6 C370 (UniProt Q9NYH9) | -0.0622 | 0.11 | 0.317 | 0.168 |
| USP9X C2107 (UniProt Q93008) | -0.256 | -0.201 | -0.266 | -0.196 |
| USP42 C867 (UniProt Q9H9J4) | -0.211 | -0.178 | -0.258 | -0.218 |
| USP38 C180 (UniProt Q8NB14) | -0.0589 | 0.35 | 0.216 | 0.343 |
| USP34 C2033 (UniProt Q70CQ2) | 0.00301 | -0.0332 | 0.0177 | 0.0643 |
| USP25 C1015 (UniProt Q9UHP3) | -0.0866 | -0.142 | 0.589 | 0.0232 |
| VAC14 C324 (UniProt Q08AM6) | 0.285 | 0.0262 | 0.0663 | -0.00502 |
| USP54 C88 (UniProt Q70EL1) | 0.0884 | 0.301 | 0.186 | 0.112 |
| USP7 C315 | -0.153 | -0.123 | 0.0713 | 0.0565 |
| USP38 C272 (UniProt Q8NB14) | 0.139 | -0.019 | 0.32 | 0.216 |
| USP9X C2293 (UniProt Q93008) | -0.0674 | -0.0992 | -0.482 | -0.108 |
| VCP C105 (UniProt P55072) | 0.143 | -0.404 | 0.293 | -0.122 |
| UMPS C255 (UniProt P11172) | -0.123 | -0.114 | 0.0121 | -0.0676 |
| USP24 C172 (UniProt Q9UPU5) | 0.115 | 0.382 | -0.0802 | 0.314 |
| VPS11 C660 (UniProt Q9H270) | 0.114 | 0.204 | -0.116 | 0.211 |
| VLDLR C331 (UniProt P98155) | -0.0354 | 0.44 | 0.165 | 0.589 |

| Target | log2 mean competition ratio ([1]; 50 µM) | log2 mean competition ratio ([1]; 200 µM) | log2 mean competition ratio ([2]; 50 µM) | log2 mean competition ratio ([2]; 200 µM) |
| --- | --- | --- | --- | --- |
| USF1 C248 (UniProt P22415) | 0.195 | 0.0208 | 0.591 | 0.163 |
| VARS1 C682 | 0.0389 | -0.174 | 0.0979 | -0.142 |
| USP34 C1215 (UniProt Q70CQ2) | 0.158 | -0.0337 | -0.0363 | -0.121 |
| UNC45B C207 | – | – | 0.405 | -0.00582 |
| VPS18 C806 (UniProt Q9P253) | – | – | – | -0.0808 |
| VARS1 C41 | – | – | 0.017 | -0.0214 |
| USP5 C838 | 0.0352 | -0.226 | 0.0869 | -0.488 |
| USP34 C1731 (UniProt Q70CQ2) | 0.108 | 0.199 | -0.178 | 0.11 |
| USP34 C1674 (UniProt Q70CQ2) | – | – | -0.133 | 0.0746 |
| USP34 C132 (UniProt Q70CQ2) | – | – | -0.0646 | 0.255 |
| URGCP C49 (UniProt Q8TCY9) | – | – | – | 0.198 |
| VKORC1L1 C50 | – | – | -0.107 | 0.0973 |
| USP28 C952 (UniProt Q96RU2) | 0.0548 | -0.181 | 0.562 | 0.0506 |
| UTP23 C60 (UniProt Q9BRU9) | – | – | -0.201 | 0.183 |
| VPS13C C2925 (UniProt Q709C8) | – | – | -0.0574 | 0.174 |
| UVRAG C239 (UniProt Q9P2Y5) | – | – | 0.415 | – |
| UBR5 C2094 (UniProt O95071) | – | – | 0.0145 | 0.0731 |
| USP54 C1270 (UniProt Q70EL1) | – | – | 0.466 | 0.19 |
| VPS33A C163 (UniProt Q96AX1) | -0.289 | 0.0231 | -0.339 | -0.0332 |
| VAC14 C114 (UniProt Q08AM6) | – | – | 0.154 | 0.0916 |
| UBXN4 C155 (UniProt Q92575) | – | – | 0.132 | -0.0441 |
| USP34 C907 (UniProt Q70CQ2) | – | – | 0.0882 | -0.344 |
| UPF1 C374 (UniProt Q92900) | -0.0572 | 0.0386 | -0.47 | 0.00592 |
| UPF3B C319 (UniProt Q9BZI7) | -0.108 | -0.161 | 0.267 | -0.00942 |
| USP15 C570 (UniProt Q9Y4E8) | -0.0791 | -0.0796 | -0.0515 | -0.164 |
| UQCRH C53 (UniProt P07919) | – | – | 0.389 | 0.145 |

A different layout for part of the listing above:
Target,log2 mean competition ratio ([1]; 50 µM),log2 mean competition ratio ([1]; 200 µM),log2 mean competition ratio ([2]; 50 µM),log2 mean competition ratio ([2]; 200 µM)
USP9X C2293 (UniProt Q93008),-0.0674,-0.0992,-0.482,-0.108
UTP23 C60 (UniProt Q9BRU9),–,–,-0.201,0.183
USP15 C570 (UniProt Q9Y4E8),-0.0791,-0.0796,-0.0515,-0.164

Going on with the list.

| Target | log2 mean competition ratio ([1]; 50 µM) | log2 mean competition ratio ([1]; 200 µM) | log2 mean competition ratio ([2]; 50 µM) | log2 mean competition ratio ([2]; 200 µM) |
| --- | --- | --- | --- | --- |
| USP34 C111 (UniProt Q70CQ2) | – | – | -0.259 | 0.0868 |
| UTP3 C359 (UniProt Q9NQZ2) | -0.305 | -0.157 | 0.144 | 0.0184 |
| VPS13B C3937 (UniProt Q7Z7G8) | 0.137 | 0.0448 | -0.102 | 0.406 |
| VPS33B C546 (UniProt Q9H267) | – | – | -0.278 | -0.238 |
| UGGT2 C1468 (UniProt Q9NYU1) | 0.114 | 0.263 | -0.0134 | 0.275 |
| VPS13C C2159 (UniProt Q709C8) | 0.562 | – | 0.377 | 0.751 |
| UPP1 C162 (UniProt Q16831) | – | – | 0.151 | -0.0676 |
| USP14 C257 (UniProt P54578) | – | – | -0.371 | -0.145 |
| VPS11 C734 (UniProt Q9H270) | – | – | -0.93 | 0.0284 |
| UHRF1 C497 (UniProt Q96T88) | – | – | -0.153 | 0.0505 |
| UQCRC1 C380 (UniProt P31930) | – | – | -0.296 | -0.0906 |
| VPS26C C137 (UniProt O14972) | 0.33 | 0.104 | -0.144 | 0.0134 |
| UIMC1 C601 (UniProt Q96RL1) | – | – | 0.322 | 0.144 |
| UNKL C213 (UniProt E9PDK2) | 0.146 | 0.03 | 0.0797 | -0.00485 |
| USP28 C701 (UniProt Q96RU2) | – | – | -0.0762 | 0.284 |
| URB2 C570 (UniProt Q14146) | – | – | 0.339 | 0.653 |
| VPS26B C334 (UniProt Q4G0F5) | – | – | -0.253 | 0.0653 |
| USP37 C538 (UniProt Q86T82) | – | – | -0.304 | -0.139 |
| UNC13B C1028 (UniProt O14795) | – | – | 0.0084 | -0.587 |
| UTRN C2185 (UniProt P46939) | – | – | -0.194 | -0.361 |
| VPS13C C3707 (UniProt Q709C8) | – | – | -0.139 | 0.0761 |
| USP22 C494 (UniProt Q9UPT9) | – | – | 0.101 | 0.405 |
| VCP C522 (UniProt P55072) | – | – | 0.654 | 0.0275 |
| VPS13B C3148 (UniProt Q7Z7G8) | – | – | 0.165 | -0.127 |
| UTRN C862 (UniProt P46939) | – | – | 0.739 | -0.00712 |
| UTP14A C522 (UniProt Q9BVJ6) | – | – | -0.306 | -0.0885 |

| Target | log2 mean competition ratio ([1]; 50 µM) | log2 mean competition ratio ([1]; 200 µM) | log2 mean competition ratio ([2]; 50 µM) | log2 mean competition ratio ([2]; 200 µM) |
| --- | --- | --- | --- | --- |
| UTRN C3023 (UniProt P46939) | – | – | 0.0632 | 0.0129 |
| VAV3 C187 (UniProt Q9UKW4) | – | – | -0.117 | 0.192 |
| USP1 C71 (UniProt O94782) | – | – | -0.201 | -0.114 |
| UFL1 C143 (UniProt O94874) | – | – | 0.203 | -0.23 |
| VARS1 C381 | – | – | 0.037 | -0.267 |
| USP48 C850 (UniProt Q86UV5) | – | – | -0.0854 | -0.0674 |
| ULBP3 C67 | – | – | 0.21 | -0.0638 |
| USP34 C638 (UniProt Q70CQ2) | – | – | 0.114 | 0.184 |
| UNC45A C488 (UniProt Q9H3U1) | – | – | -0.185 | 0.173 |
| UIMC1 C445 (UniProt Q96RL1) | – | – | 0.561 | 0.289 |
| USP34 C741 (UniProt Q70CQ2) | – | – | -0.182 | 0.991 |
| VARS2 C713 | – | – | -0.454 | 0.126 |
| URI1 C167 (UniProt O94763) | – | – | -0.396 | -0.495 |
| VAPB C121 (UniProt O95292) | – | – | 0.0444 | -0.0572 |
| UTP6 C524 (UniProt Q9NYH9) | – | – | -0.226 | 0.0741 |
| UMPS C304 (UniProt P11172) | – | – | 0.26 | -0.22 |
| UQCC1 C124 (UniProt Q9NVA1) | – | – | 0.294 | -0.117 |
| UPF2 C687 (UniProt Q9HAU5) | – | – | -0.104 | -0.217 |
| USP9X C540 (UniProt Q93008) | – | – | 0.0368 | -0.138 |
| VCPIP1 C816 (UniProt Q96JH7) | – | – | 0.235 | -0.337 |
| USP38 C557 (UniProt Q8NB14) | – | – | -0.558 | -0.114 |
| USP24 C1202 (UniProt Q9UPU5) | – | – | 0.619 | 0.171 |
| UQCRC2 C192 (UniProt P22695) | – | – | -0.15 | -0.0259 |
| UPF2 C1107 (UniProt Q9HAU5) | – | – | -0.165 | -0.743 |
| USP32 C1320 (UniProt Q8NFA0) | – | – | 0.242 | 0.215 |
| USP36 C302 (UniProt Q9P275) | – | – | -0.0954 | 0.0878 |
